Assay results taken from PubChem BioAssay AID2685 (National Center for Advancing Translational Sciences (NCATS), 2010).
This is one part of the list. These are further read-outs of the screen, such as a control signal, another cell line or another target. No call is given for them. The list favours compounds with an active or inconclusive main result. The note in brackets gives the kind of curve behind each potency; many fits are weak.

Experiment: qHTS Assay for Lipid Storage Modulators in Drosophila S3 Cells;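 on cell number change: cells counted by Cell Tracker Red CMTPX staining in the red channel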
Conditions: BODIPY lipid droplet fluorescence, 18-24 h; for cell number change: measured here: cell count max response, cells fed with added oleic acid
Outline: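 Drosophila S3 cells loaded with oleic acid (400 uM, as added) and compounds at several concentrations; lipid droplets imaged by 488-nm laser-scanning cytometry, 500–530 nm intensity and object ratio to cell channel. Percent activity normalized to 20 uM Triacsin C.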

[1] = measured here: cell number channel AC50, cells fed with added oleic acid
[2] = measured here: lipid fluorescence (Fed channel) AC50, cells fed with added oleic acid

Compound | cell number change [%] | AC50 [1] | AC50 [2]
COc1ccc(CNC(=O)CS(=O)CC(=O)O)cc1OC (configuration not stated) | 32.8 |  | 
CCOc1ccc(S(=O)(=O)n2nnc3ccccc32)cc1C | 55.8 | 7.31 µM [rising, full curve] | 23.1 µM [falling, single point]
O=C(CCC(=O)c1ccc(F)cc1)Nc1cccnc1 | 14 |  | 0.517 µM [rising, full curve, poor fit]
O=C(NCc1ccccn1)C1CCCN(S(=O)(=O)c2cccc3nsnc23)C1 (configuration not stated) | 14.1 |  | 0.184 µM [rising, full curve, poor fit]
COc1cc(/C=N/NC(=O)c2ccc(C)nc2)cc([N+](=O)[O-])c1O | 11.1 |  | 0.13 µM [falling, full curve, poor fit]
Cc1cc(Br)cc2cn[nH]c12 | -1.19 | 4.61 µM [rising, partial curve] | 
N#C/C(=C\c1ccc(N2CCCCC2)o1)C(=O)Nc1cccc(Br)c1 | -52.5 | 3.66 µM [falling, partial curve] | 29.1 µM [falling, single point]
O=C(CSc1ccccc1)NC1CCCCCC1 | -27.6 |  | 28.2 µM [falling, single point]
CC(C)c1nc2cc(C(=O)N3CCN(c4cnccn4)CC3)ccc2o1 | -40.5 | 29.1 µM [falling, single point] | 23.1 µM [falling, partial curve, poor fit]
O=C1C=C(NCCOC23CC4CC(CC(C4)C2)C3)C2(CCCCC2)O1 | -45 | 29.1 µM [falling, single point] | 
COC(=O)c1cc(C)sc1NC(=O)CCc1ccccc1 | 9.97 |  | 29.1 µM [falling, single point]
O=C(O)c1cccc(-n2cccc2/C=N/O)c1 | -16.3 |  | 0.00461 µM [falling, full curve, poor fit]
CNc1ccccc1C(C)(C)c1cc(-c2cccc([N+](=O)[O-])c2)no1 | -21.5 |  | 0.58 µM [falling, single point]
Cc1ccc2nc(NC(=O)CN3CCN(c4ccccn4)CC3)sc2c1 | 36.2 | 11.6 µM [rising, partial curve, poor fit] | 
CCN1CCN(C(=O)CN(c2cc(OC)ccc2OC)S(C)(=O)=O)CC1 | 4.67 |  | 6.51 µM [falling, single point]
CC1CCCN(CC(O)COc2ccc(S(=O)(=O)N3CCCC3)cc2[N+](=O)[O-])C1 (configuration not stated) | -8.41 |  | 
COc1ccc2cc(C(=O)O)ccc2c1 | 161 |  | 6.51 µM [falling, single point]
O=S(=O)(c1cccc(S(=O)(=O)N2CCC(N3CCCCC3)CC2)c1)N1CCOCC1 | 3.23 |  | 
O=C1CCCc2nc(N3CCN(C(c4ccccc4)c4ccccc4)CC3)ncc21 | -3.56 |  | 
CCOc1ccccc1NC(=O)CCCCCN1C(=O)[C@@H]2Cc3ccccc3CN2C1=O | 0.236 |  | 

A second format for 3 compounds above:
Compound	cell number change [%]	AC50 [1]	AC50 [2]
COc1cc(/C=N/NC(=O)c2ccc(C)nc2)cc([N+](=O)[O-])c1O	11.1		0.13 µM [falling, full curve, poor fit]
N#C/C(=C\c1ccc(N2CCCCC2)o1)C(=O)Nc1cccc(Br)c1	-52.5	3.66 µM [falling, partial curve]	29.1 µM [falling, single point]
CCOc1ccccc1NC(=O)CCCCCN1C(=O)[C@@H]2Cc3ccccc3CN2C1=O	0.236		

The list continues:

Compound | cell number change [%] | AC50 [1] | AC50 [2]
O=C(OCC(=O)N1CCN(C(=O)c2ccco2)CC1)c1sc2ccccc2c1Cl | -19 |  | 4.61 µM [falling, full curve]
CCc1cc(C(=O)NCC(c2ccc(OC)cc2)N2CCOCC2)sc1C (configuration not stated) | 91.5 | 8.2 µM [rising, partial curve] | 
O=C(CNC(=O)c1ccccc1F)N/N=C/c1cccnc1 | -27.2 |  | 
Cc1ccsc1/C=N/n1c(-c2cc(-c3ccccc3)n[nH]2)n[nH]c1=S | -52.5 | 14.6 µM [falling, partial curve, poor fit] | 16.4 µM [falling, single point]
Cc1ccccc1Cn1c(=O)n(CCC(=O)NCc2ccc3c(c2)OCO3)c(=O)c2ccccc21 | 17.4 |  | 29.1 µM [rising, single point]
Cc1ccc(C)c(S(=O)(=O)N2CC(=O)Nc3ccccc32)c1 | 19.2 |  | 3.66 µM [rising, single point]
CC(=O)NC1=NC(=O)/C(=C/c2cn(C(C)=O)nc2-c2ccccc2)S1 | 22.8 |  | 29.1 µM [rising, single point]
Cc1ccc(S(=O)(=O)c2c[nH]c3cc4c(cc3c2=O)OCO4)cc1 | 30.8 | 1.64 µM [rising, full curve] | 2.06 µM [rising, partial curve]
Cc1cc(C)n2nc(C(=O)OCC(=O)Nc3ccc4c(c3)OCO4)nc2n1 | -17.9 |  | 
NS(=O)(=O)c1ccc(CCNc2nc3c(-c4cccc(F)c4)nnn3c3ccccc23)cc1 | 7.91 |  | 3.26 µM [falling, single point]
CN(C(=O)CN1CCN(c2ccccc2F)CC1)C1CCCc2ccccc21 (configuration not stated) | 7.69 |  | 6.51 µM [rising, single point]
CC(=O)c1ccccc1NC(=O)COC(=O)c1cc2ccccc2[nH]1 | -38.7 | 18.4 µM [falling, single point] | 
Cc1ccc2oc(=O)n(Cc3ccc(OC(C)C)cc3)c2c1 | 10.5 |  | 
CCOC(=O)c1c(NC(=O)c2nn(C)cc2[N+](=O)[O-])sc(C)c1C | 30 | 32.6 µM [rising, single point] | 
O=C(NC1=NCCS1)C1CCN(S(=O)(=O)c2ccccc2C(F)(F)F)CC1 | 0.752 |  | 13 µM [falling, partial curve]
CCOC(=O)CC(C)(C)/C(C)=N/Nc1ccc([N+](=O)[O-])cc1[N+](=O)[O-] | -44.1 | 0.82 µM [rising, full curve] | 0.82 µM [rising, full curve]
COc1cc([N+](=O)[O-])cc2sc(NC(=O)c3c(F)cccc3F)nc12 | -26.3 |  | 2.59 µM [falling, single point]
COc1ccccc1C(=O)Nc1onc(C)c1C#N | 22.2 |  | 4.61 µM [rising, full curve, poor fit]
Cc1ccc(S(=O)(=O)n2ccc3c(OCCOCCSCC(NC(=O)OC(C)(C)C)C(=O)O)cccc32)cc1 (configuration not stated) | -24.1 |  | 
CCCCC(=O)N(c1ccc(C(=O)O)cc1)c1nc(-c2ccc(Cl)cc2)c(CC)s1 | -55.7 | 0.651 µM [falling, full curve, poor fit] | 1.03 µM [falling, partial curve]

Compound | cell number change [%] | AC50 [1] | AC50 [2]
COc1ccc(OC)c(Nc2nc(-c3ccncc3)nc3ccccc23)c1 | 4.5 | 1.46 µM [rising, full curve] | 11.6 µM [falling, single point]
N#Cc1ccc(/C=C\c2nccc3c2[nH]c2ccccc23)cc1 | -51.5 | 6.51 µM [falling, full curve] | 9.2 µM [falling, partial curve]
N#CCCN(C(=O)CSc1ccc2c(c1)OCCO2)c1ccccc1 | 19.8 |  | 0.00461 µM [falling, full curve, poor fit]
CC(C(=O)OCC(=O)c1ccc([N+](=O)[O-])cc1)N1C(=O)C2C3C=CC(C3)C2C1=O (configuration not stated) | -16.4 |  | 
C/C(=N\OC(=O)NC(C)C)c1sc(-c2ccccc2)nc1C |  | 0.82 µM [rising, partial curve, poor fit] | 29.1 µM [falling, single point]
COc1cccc(N2CCN(CC(=O)NCc3ccccc3)CC2)c1 | 5.07 |  | 20.6 µM [falling, single point]
C[C@@H](C(=O)NCc1ccccc1)[C@@H]1C[C@@]1(C)[C@@H](NC(=O)OCc1ccccc1)c1ccccc1 | -1.42 |  | 
O=S(=O)(Cc1cc(Sc2ccc(Cl)cc2)nc(-c2ccccc2)n1)c1ccccc1 |  | 0.082 µM [rising, partial curve, poor fit] | 9.2 µM [rising, partial curve, poor fit]
CCOc1ccc2[nH]c(C)c(CN(C)C)c(=O)c2c1 | 4.13 |  | 7.31 µM [falling, partial curve]
CCOC(=O)C1CCN(C(=O)/C(=C/c2ccccc2)NC(=O)c2ccccc2)CC1 | 4.69 |  | 5.8 µM [falling, single point]
COc1cccc(COc2cc3ccccc3nc2C)c1 | -43.3 | 10.3 µM [falling, partial curve] | 18.4 µM [falling, partial curve]
CCC(Cc1ccccc1)NS(=O)(=O)c1ccc2c(c1)NC(=O)CS2 (configuration not stated) | -44.5 | 29.1 µM [falling, single point] | 29.1 µM [falling, single point]
Cc1ccc(O)c(Nc2c3ccccc3nc3ccccc23)c1 | -35.5 | 29.1 µM [falling, single point] | 
CC(C)C[C@H](NC(=O)c1[nH]cnc1C(=O)N[C@@H](C)C(=O)OC(C)(C)C)C(=O)OC(C)(C)C | -40.9 | 29.1 µM [falling, single point] | 
Cc1nn(C(C)C)c(C)c1CN1CCCC(C(=O)c2cccc(OC(C)C)c2)C1 (configuration not stated) | 13.7 |  | 2.06 µM [rising, partial curve, poor fit]
O=C(Nc1cccc(Cl)c1)N1CCCCCC1 | 7.97 |  | 0.651 µM [rising, single point]
CCOC(=O)C(=CN(CCc1ccccc1)CC(=O)OC)C(=O)OCC |  |  | 18.4 µM [rising, partial curve, poor fit]
COc1ccc(C2c3sc(=O)[nH]c3SC3C(=O)N(c4ccccc4)C(=O)C32)cc1 (configuration not stated) |  |  | 3.26 µM [rising, partial curve]
CCOC(=O)c1ccc(NC(=O)CCNC(=O)c2ccc([N+](=O)[O-])cc2)cc1 | 45.5 | 1.64 µM [rising, full curve] | 9.2 µM [rising, partial curve]
